Laboratory results: PubChem BioAssay AID686971 (National Center for Advancing Translational Sciences (NCATS), 2013)
The entries are a selection whose mix differs from that of the whole data set. Inconclusive results are not listed. Activity calls are given as the source filed them. Calls come from the whole dose curve; as a rule, active = well fitted cell-killing curve with a large enough effect; inconclusive = small, poorly fitted or top-dose-only effect, or effect the other way, or another doubt; inactive = no such curve, though single readings can be large or run the other way.

assay: qHTS for induction of synthetic lethality in tumor cells producing 2HG: qHTS for the HT-1080-IDH1KD cell line; settings: HT-1080 IDH1 knockdown viability, ATP luminescence, 48 h
Text: Unbiased genomic sequencing for 22 glioma genomes found recurrent mutation of IDH1 on chromosome 2q33, a gene encoding the cytosolic isoform of IIDH1 associated with the tri-carboxylic acid cycle (TCA) that catalyzes the oxidative decarboxylation of isocitrate, yielding alpha-ketoglutarate and CO2 via NADP+ to NADPH conversion. Subsequent studies confirmed the recurrent IDH mutations in up to 70% of secondary gliomas and in 10% of AML cases. […]
Suspensions of trypsinized HT-1080-IDH1KD cells were dispensed into white, tissue culture-treated, solid 1536-well plates at 5uL/well (750 cells/well final concentration) in RPMI medium supplemented with 5% FBS. […] The plates were measured on a PerkinElmer ViewLux plate reader for luminescent signal (clear filter, 1 sec exp.). […]
Concentration-response curves were fitted to the signals arising from the resulting luminescence. The concentration-effect curves were then classified based on curve quality (r2), response magnitude and degree of measured activity, and compounds were subsequently categorized based on their curve class.
Potency is the fitted concentration of half-maximal effect.

SMILES	Potency
COc1c(O)cc2c(c1OC)-c1ccc(SC)c(=O)cc1C(NC(C)=O)CC2 (stereo unspecified)	active: 7.3 nM
